# Source: US20230365653A1
# Protein sequences, listed by entry. Tags and fused reporters are not part of them. Lines headed by an entry give the natural chain unless they say otherwise; changes in a name come on top.
# UniProt Q9NZQ7: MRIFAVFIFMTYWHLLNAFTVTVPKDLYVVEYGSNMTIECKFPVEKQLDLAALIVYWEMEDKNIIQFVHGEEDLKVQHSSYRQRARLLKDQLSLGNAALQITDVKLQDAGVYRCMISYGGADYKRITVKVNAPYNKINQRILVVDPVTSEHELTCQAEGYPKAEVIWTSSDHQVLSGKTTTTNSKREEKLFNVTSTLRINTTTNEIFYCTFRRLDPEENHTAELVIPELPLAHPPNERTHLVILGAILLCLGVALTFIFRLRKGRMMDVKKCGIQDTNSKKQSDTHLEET
# UniProt P37173: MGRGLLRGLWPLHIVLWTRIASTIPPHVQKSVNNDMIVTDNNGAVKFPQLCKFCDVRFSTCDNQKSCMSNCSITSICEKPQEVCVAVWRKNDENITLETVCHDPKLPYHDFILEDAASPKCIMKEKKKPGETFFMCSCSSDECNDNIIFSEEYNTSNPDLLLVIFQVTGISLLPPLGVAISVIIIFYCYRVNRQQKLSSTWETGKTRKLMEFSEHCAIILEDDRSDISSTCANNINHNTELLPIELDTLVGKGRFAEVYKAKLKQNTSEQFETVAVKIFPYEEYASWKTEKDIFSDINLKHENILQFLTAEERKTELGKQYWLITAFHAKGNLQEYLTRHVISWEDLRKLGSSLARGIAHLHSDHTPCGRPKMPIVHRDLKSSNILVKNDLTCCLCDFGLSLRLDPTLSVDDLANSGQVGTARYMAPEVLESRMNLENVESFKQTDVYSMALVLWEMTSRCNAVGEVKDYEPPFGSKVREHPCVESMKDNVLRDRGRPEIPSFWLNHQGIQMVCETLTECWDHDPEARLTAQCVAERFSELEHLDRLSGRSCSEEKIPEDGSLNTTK
# Results are given in words; binding and its absence hold for the method and conditions named. Some binding calls cover weakened binding; strength is not graded here.
# How the values were obtained:
# [1] = target: recombinant human PD-L1-his protein (Accession No.: NP_054862.1, 19 aa-238 aa) (human) (UniProt Q9NZQ7); assay: ELISA, target coated at 1 µg/ml
# [2] = target: recombinant human PD-L1-his protein (Accession No.: NP_054862.1, 19 aa-238 aa) (human) (UniProt Q9NZQ7); assay: BLI (Octet QKe)
substance,measurement,setting,value
anti-human PD-L1 nanobody/TGF-β RII fusion protein mutant hzF2-TGF-β RIIm2 (from UniProt P37173 24-159),binding,[1],binds
same,binding,[2],binds
